Results reported in PMC7210110.
Results are given in words; binding and its absence hold for the method and conditions named. Some results given as binding are weak or reduced against the parent protein; the word gives no strength. Tags and fused reporters may be left off the sequences shown.

Tests used:
[1] = target: T1, AtHAK1 (Arabidopsis HDS-associated receptor-like kinase 1), cell-free synthesised, biotinylated (bls) copy and FLAG-tagged copy (Arabidopsis) (UniProt C0LGD7); assay: AlphaScreen or HTRF; AlphaScreen between biotinylated and FLAG-conjugated proteins synthesised in a cell-free system
T1 sequence (chain, biotin on the biotin ligation site (bls copy only)): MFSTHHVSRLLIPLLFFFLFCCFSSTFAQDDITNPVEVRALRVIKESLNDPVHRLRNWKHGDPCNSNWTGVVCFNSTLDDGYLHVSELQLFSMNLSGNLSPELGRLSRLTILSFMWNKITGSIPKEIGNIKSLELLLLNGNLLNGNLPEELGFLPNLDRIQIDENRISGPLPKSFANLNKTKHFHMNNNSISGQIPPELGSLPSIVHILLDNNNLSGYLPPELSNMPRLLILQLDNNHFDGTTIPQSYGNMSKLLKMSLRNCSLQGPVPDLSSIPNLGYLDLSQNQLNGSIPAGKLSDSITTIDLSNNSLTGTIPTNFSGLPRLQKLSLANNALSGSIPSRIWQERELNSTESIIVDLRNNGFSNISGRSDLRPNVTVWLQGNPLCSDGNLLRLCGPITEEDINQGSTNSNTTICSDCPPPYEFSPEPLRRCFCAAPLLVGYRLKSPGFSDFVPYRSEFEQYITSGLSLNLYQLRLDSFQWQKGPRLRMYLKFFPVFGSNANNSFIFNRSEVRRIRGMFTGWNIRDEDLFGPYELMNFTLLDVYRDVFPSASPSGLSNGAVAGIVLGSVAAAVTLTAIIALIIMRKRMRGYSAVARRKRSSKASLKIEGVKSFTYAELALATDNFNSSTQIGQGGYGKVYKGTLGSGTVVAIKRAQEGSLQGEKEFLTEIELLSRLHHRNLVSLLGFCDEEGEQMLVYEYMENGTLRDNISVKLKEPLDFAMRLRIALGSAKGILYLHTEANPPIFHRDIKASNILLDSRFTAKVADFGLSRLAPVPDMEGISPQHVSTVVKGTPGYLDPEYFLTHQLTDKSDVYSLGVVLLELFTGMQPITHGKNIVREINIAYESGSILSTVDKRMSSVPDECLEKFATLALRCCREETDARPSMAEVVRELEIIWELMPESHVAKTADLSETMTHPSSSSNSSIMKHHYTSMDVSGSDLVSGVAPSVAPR

[2] = target: T2, AtCERK1 (Arabidopsis chitin elicitor receptor kinase 1), cell-free synthesised, FLAG-tagged (Arabidopsis) (UniProt A8R7E6); assay: as above
T2 sequence: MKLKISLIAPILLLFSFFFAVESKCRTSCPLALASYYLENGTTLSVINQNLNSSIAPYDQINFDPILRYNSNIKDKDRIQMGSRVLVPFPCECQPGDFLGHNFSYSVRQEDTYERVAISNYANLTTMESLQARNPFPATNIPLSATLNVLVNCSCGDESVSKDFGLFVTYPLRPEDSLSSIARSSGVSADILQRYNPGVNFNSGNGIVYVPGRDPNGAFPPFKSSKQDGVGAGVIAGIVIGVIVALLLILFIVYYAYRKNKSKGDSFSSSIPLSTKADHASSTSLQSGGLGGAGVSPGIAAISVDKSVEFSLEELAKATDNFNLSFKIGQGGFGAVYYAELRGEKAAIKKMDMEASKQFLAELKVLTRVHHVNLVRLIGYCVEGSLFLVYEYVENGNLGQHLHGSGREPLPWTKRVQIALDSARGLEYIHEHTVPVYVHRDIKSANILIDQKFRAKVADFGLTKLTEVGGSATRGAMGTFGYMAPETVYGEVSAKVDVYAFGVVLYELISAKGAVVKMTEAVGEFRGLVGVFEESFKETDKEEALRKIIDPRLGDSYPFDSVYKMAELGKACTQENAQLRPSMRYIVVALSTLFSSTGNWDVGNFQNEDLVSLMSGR

binding [1]: binds
binding [2]: binds
B1: AtPBL27, cell-free synthesised, biotinylated (protein, UniProt Q1PDV6 1-513)
chain: MSGCLPCFGSSAKDAASKDSVKKELSAKDGSVTQSHHISLDKSKSRRGPEQKKELTAPKEGPTAHIAAQTFTFRELAAATKNFRPECLLGEGGFGRVYKGRLETTGQIVAVKQLDRNGLQGNREFLVEVLMLSLLHHPNLVNLIGYCADGDQRLLVYEYMPLGSLEDHLHDLPPDKEPLDWSTRMTIAAGAAKGLEYLHDKANPPVIYRDLKSSNILLGDGYHPKLSDFGLAKLGPVGDKTHVSTRVMGTYGYCAPEYAMTGQLTLKSDVYSFGVVFLELITGRKAIDNARAPGEHNLVAWARPLFKDRRKFPKMADPSLQGRYPMRGLYQALAVAAMCLQEQAATRPLIGDVVTALTYLASQTFDPNAPSGQNSRSGSGPPFIRTRDDRRSLGDGSSLDSPAETRSRLGSPATHKNSPDYRRRDMVREVNAGSEGGSETGGGSGRKWGLSDLEGQESQRGSPASVGRSSRGTPRNRDLDRERAVAEAKVWGENWRERKRATNGPGSFDSTND
modifications: biotin on the biotin ligation site
